Experimental data taken from the supplement of paper PMC10849652.
This is one part of the list.

Chains of the proteins cited; added tags and fusions are not shown. Lines headed by an entry give the natural chain unless they say otherwise; changes in a name come on top.
UniProt Q9BZZ5: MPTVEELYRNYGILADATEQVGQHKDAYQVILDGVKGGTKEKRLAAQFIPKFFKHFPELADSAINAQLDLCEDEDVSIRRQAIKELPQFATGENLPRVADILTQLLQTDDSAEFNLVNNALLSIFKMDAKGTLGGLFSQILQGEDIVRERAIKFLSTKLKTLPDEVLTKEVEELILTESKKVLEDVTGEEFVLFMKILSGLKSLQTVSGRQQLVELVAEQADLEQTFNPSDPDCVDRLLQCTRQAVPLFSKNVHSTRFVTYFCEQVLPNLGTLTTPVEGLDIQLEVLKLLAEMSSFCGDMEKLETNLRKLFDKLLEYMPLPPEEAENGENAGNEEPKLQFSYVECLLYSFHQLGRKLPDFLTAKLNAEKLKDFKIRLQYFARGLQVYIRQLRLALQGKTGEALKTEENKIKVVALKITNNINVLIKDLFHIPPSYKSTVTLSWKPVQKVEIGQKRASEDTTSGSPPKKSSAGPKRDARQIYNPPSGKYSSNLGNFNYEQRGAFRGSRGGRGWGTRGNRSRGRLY
UniProt P05090: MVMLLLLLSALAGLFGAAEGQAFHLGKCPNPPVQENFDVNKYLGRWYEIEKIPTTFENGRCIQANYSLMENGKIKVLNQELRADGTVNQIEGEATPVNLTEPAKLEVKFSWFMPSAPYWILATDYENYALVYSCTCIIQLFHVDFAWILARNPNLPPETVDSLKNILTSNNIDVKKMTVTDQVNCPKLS
UniProt P29972: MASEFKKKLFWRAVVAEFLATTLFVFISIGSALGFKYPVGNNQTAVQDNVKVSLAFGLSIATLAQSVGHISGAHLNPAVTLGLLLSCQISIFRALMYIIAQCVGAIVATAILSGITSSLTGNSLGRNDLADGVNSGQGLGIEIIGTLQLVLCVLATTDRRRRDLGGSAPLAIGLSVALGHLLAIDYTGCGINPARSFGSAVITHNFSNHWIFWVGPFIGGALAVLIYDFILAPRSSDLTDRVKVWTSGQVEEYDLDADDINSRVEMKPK
UniProt P84077: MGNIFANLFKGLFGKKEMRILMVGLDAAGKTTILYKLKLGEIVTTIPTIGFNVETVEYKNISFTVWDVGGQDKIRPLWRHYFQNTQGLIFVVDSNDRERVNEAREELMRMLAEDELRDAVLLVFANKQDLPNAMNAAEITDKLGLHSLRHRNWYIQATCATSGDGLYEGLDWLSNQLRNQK
UniProt Q9H2J1: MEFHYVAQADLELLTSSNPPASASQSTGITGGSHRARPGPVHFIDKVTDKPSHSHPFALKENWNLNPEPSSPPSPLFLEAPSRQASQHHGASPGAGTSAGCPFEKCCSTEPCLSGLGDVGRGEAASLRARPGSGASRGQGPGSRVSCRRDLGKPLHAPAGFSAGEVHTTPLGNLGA
UniProt Q8N2F6: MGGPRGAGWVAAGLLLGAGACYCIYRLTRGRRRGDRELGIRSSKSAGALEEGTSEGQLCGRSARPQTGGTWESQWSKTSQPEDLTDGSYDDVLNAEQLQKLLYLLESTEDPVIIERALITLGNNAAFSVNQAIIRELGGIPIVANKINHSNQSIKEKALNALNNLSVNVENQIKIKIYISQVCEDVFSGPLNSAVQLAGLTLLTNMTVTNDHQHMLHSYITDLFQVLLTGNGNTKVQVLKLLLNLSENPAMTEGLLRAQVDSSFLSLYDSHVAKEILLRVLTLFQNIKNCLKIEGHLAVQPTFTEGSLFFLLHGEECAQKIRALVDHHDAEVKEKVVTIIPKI
UniProt Q9H0F7: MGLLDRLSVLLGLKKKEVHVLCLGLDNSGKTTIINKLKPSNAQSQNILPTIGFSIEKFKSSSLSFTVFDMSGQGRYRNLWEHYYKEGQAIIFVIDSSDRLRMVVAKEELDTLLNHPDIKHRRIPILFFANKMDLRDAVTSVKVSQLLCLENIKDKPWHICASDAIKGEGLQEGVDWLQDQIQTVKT
UniProt Q96B67: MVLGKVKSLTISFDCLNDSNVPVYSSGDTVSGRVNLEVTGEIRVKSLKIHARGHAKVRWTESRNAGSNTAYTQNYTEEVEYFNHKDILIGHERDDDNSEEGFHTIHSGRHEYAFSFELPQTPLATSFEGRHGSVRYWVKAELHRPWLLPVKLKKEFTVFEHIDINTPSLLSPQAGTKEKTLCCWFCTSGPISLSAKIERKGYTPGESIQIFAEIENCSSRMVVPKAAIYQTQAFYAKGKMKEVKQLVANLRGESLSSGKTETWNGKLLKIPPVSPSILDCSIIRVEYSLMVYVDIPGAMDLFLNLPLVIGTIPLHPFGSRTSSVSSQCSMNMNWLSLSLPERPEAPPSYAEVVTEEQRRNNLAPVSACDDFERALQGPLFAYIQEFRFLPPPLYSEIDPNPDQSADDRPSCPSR
UniProt Q9NZN5: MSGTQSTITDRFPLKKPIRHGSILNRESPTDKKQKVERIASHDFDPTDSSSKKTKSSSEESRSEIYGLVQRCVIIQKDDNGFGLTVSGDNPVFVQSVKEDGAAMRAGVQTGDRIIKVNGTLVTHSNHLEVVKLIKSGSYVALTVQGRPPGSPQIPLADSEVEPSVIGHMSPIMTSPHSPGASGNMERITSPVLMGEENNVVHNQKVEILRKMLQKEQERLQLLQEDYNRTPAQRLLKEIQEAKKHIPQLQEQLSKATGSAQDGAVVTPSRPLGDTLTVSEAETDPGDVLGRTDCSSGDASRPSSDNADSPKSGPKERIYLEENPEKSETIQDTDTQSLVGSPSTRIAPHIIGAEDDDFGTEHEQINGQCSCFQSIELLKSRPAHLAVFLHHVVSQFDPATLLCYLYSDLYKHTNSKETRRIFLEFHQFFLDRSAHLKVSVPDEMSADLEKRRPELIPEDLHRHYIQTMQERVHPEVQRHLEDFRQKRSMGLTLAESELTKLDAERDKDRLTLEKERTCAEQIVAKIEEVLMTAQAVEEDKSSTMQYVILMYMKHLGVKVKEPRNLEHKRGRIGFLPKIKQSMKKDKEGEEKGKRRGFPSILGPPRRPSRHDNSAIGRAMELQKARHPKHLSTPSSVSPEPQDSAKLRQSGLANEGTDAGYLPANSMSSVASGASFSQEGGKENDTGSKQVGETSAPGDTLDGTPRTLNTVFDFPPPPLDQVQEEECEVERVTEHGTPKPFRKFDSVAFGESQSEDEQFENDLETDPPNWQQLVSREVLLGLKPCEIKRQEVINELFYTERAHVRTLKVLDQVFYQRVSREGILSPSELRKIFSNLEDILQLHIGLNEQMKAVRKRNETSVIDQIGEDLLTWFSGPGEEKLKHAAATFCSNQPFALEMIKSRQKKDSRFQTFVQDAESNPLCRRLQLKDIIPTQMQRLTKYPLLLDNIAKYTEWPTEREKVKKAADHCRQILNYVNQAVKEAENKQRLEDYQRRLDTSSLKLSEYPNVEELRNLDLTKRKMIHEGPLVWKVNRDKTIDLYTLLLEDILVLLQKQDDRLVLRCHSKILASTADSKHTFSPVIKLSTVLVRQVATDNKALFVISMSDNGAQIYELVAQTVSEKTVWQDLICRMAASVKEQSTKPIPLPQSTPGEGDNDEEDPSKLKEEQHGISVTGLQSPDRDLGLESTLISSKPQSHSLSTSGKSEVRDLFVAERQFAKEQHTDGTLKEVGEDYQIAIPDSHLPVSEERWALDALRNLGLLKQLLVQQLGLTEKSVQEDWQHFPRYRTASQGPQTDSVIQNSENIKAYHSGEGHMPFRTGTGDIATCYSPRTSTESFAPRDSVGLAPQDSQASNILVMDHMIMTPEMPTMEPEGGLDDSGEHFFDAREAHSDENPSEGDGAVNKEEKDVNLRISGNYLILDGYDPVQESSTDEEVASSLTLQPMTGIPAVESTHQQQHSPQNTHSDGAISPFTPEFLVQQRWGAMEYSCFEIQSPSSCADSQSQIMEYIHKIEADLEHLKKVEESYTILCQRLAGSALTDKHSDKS
UniProt Q8WWN8: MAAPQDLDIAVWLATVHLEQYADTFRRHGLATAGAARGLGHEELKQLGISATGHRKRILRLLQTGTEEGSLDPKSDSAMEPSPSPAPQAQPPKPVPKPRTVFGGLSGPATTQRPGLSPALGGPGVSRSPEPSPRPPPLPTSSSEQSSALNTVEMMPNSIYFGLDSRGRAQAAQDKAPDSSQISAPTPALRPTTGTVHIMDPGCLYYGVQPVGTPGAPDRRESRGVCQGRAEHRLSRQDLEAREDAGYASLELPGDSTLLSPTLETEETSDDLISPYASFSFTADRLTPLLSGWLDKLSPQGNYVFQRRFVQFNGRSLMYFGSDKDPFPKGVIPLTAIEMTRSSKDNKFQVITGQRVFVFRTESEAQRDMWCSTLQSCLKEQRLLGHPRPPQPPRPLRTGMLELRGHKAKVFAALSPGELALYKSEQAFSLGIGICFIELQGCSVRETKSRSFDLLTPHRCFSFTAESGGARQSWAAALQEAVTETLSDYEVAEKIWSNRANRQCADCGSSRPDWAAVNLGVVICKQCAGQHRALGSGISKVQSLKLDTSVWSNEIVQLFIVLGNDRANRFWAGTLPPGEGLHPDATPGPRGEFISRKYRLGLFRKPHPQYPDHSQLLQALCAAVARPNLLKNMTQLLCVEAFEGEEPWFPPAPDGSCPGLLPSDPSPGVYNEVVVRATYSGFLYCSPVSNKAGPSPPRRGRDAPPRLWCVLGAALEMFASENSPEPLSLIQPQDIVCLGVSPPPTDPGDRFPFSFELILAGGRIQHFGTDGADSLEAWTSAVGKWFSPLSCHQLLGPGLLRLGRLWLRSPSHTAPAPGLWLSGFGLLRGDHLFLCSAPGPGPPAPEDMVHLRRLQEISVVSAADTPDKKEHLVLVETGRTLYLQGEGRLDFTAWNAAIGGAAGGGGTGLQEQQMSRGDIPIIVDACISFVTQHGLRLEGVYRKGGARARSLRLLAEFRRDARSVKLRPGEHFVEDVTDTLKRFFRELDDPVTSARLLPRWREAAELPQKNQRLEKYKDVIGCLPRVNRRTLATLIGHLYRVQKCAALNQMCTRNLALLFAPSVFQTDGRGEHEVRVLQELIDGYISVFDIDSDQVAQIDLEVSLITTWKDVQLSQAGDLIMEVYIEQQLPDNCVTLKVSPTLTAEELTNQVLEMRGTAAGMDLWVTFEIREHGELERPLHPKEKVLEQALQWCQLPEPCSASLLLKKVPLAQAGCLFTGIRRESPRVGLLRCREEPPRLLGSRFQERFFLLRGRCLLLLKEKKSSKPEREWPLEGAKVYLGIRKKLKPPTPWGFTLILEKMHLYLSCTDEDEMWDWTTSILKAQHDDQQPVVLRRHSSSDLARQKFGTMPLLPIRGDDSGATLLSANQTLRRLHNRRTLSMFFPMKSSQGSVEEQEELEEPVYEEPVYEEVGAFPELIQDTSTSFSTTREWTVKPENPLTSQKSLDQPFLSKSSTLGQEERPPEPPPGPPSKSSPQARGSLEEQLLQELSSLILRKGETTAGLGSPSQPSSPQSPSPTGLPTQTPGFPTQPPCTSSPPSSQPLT
UniProt Q9UH17: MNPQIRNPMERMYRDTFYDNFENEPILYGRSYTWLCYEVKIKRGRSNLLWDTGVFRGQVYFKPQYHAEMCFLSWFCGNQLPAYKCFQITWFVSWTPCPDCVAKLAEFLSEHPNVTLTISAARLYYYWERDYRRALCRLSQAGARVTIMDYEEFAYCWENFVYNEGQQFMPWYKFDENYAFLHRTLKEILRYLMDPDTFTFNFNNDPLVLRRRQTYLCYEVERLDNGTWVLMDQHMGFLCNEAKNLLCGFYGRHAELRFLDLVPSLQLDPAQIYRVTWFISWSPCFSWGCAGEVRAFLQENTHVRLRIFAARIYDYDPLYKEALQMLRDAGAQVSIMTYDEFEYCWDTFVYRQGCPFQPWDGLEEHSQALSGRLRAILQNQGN
UniProt Q66PJ3: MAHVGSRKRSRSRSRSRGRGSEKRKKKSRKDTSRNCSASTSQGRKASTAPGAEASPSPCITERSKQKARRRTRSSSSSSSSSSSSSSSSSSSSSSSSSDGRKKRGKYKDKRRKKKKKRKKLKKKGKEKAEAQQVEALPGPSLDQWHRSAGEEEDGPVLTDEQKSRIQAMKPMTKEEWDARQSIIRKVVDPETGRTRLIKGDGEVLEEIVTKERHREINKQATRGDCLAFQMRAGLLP
UniProt O96018: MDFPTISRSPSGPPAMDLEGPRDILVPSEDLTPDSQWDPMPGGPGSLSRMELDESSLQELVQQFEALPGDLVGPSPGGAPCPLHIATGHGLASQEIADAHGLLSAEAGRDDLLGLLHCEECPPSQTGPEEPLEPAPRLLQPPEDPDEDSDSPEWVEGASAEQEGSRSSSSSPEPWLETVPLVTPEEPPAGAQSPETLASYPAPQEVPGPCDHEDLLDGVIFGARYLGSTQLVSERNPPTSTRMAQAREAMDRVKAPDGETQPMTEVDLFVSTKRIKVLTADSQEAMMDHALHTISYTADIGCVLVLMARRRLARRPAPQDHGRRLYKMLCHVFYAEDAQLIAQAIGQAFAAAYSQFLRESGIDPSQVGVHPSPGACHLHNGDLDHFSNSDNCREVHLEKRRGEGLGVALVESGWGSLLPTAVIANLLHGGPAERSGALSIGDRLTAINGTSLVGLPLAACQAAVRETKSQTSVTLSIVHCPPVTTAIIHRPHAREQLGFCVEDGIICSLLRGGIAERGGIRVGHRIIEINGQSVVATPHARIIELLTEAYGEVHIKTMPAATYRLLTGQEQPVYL

Assays:
Assay in all cases: log2 fold change, soluble protein after heating vs DMSO (PISA); higher = thermal stabilisation; K562 lysate, 10 uM; active = over 0.2 and 3.5 SD of the protein, either way, in both replicates (recomputed)
[1] = compound: CC(=O)c1cnc2ccc(-c3cc(Cl)c(O)c(Cl)c3)nc2c1N[C@H]1CC[C@H](CN(C)C)CC1
Procedure, shortened: (§1)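 Following dounce homogenisation of K562 pellets in PBS pH 7.4 with 1 mM MgCl2, crude extract at 1 mg/mL protein was incubated for 30 min with 10 μM compound. Aliquots were then heated for 3 min over 48°C-58°C and pooled, NP-40 was added to 0.5% at 4°C, and soluble protein was recovered as the supernatant at 21,000xg for 90 min. Channel-sum-equalised TMTpro 16plex LC-MS/MS quantified this protein. Each value, from duplicates, is a log-two fold change in thermal stability relative to solvent controls.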

[2] = compound: CC1=C(C=C(C=C1)NC(=O)C2=CC(=CC=C2)C(C)(C)C#N)NC3=CC4=C(C=C3)N=CN(C4=O)C
Procedure, shortened: as §1

[3] = compound: CC1=CC=C(C=C1)SC2=C3C=C(SC3=CN=C2)C(=O)N
Procedure, shortened: as §1

[4] = compound: CCCS(=O)(=O)Nc1ccc(F)c(C(=O)c2c[nH]c3ncc(Cl)cc23)c1F
Procedure, shortened: as §1

volasertib = compound: CC[C@@H]1C(=O)N(C)c2cnc(Nc3ccc(C(=O)N[C@H]4CC[C@H](N5CCN(CC6CC6)CC5)CC4)cc3OC)nc2N1C(C)C [volasertib]
Procedure, shortened: as §1

sotrastaurin = compound: CN1CCN(c2nc(C3=C(c4c[nH]c5ccccc45)C(=O)NC3=O)c3ccccc3n2)CC1 [sotrastaurin]
Procedure, shortened: as §1

ralimetinib = compound: CC(C)(C)Cn1c(N)nc2ccc(-c3[nH]c(C(C)(C)C)nc3-c3ccc(F)cc3)nc21 [ralimetinib]
Procedure, shortened: as §1

[5] = compound: CC(C)(O)CC(=O)NCCn1ccc2ncnc(Nc3ccc(Oc4cccc(C(F)(F)F)c4)c(Cl)c3)c21
Procedure, shortened: as §1

[6] = compound: CC1=C(C(CC(=O)N1)C2=CC=C(C=C2)C(F)(F)F)C(=O)NC3=C(C=C4C(=C3)C=NN4)F
Procedure, shortened: as §1

[7] = compound: CC1=C(C=C(C=C1)NC(=O)C2=CC(=CC=C2)N(C)C)NC(=O)C3=CC=C(C=C3)O
Procedure, shortened: as §1

[8] = compound: CCn1c(C(=O)N(C2CC2)C2CC2)cc2c3c(ncn3C)c(Nc3cc(C)n(C)n3)nc21
Procedure, shortened: as §1

[9] = compound: CCn1cc(-c2ccnc3[nH]c(-c4cccc(CN(C)C)c4)cc23)c(-c2ccc(NC(=O)N(C)C)cc2)n1
Procedure, shortened: as §1

[10] = compound: CN1CCC(CNc2ccc3ncc(-c4cccc(OC(F)(F)F)c4)n3n2)CC1
Procedure, shortened: as §1

[11] = compound: CC1=C(C2=C(C=C1)C(=O)C3=CC=CC=C3N2CCCN)C
Procedure, shortened: as §1

[12] = compound: CC[C@@H]1C(=O)N(C)c2cnc(Nc3ccc(C(=O)NC4CCN(C)CC4)cc3OC)nc2N1C1CCCC1
Procedure, shortened: as §1

saracatinib = compound: CN1CCN(CCOc2cc(OC3CCOCC3)c3c(Nc4c(Cl)ccc5c4OCO5)ncnc3c2)CC1 [saracatinib]
Procedure, shortened: as §1

[13] = compound: CC(C)C1=C2N=C(C=C(N2N=C1)NCC3=CC=CC=C3)NCCCCCCN
Procedure, shortened: as §1

vemurafenib = compound: CCCS(=O)(=O)Nc1ccc(F)c(C(=O)c2c[nH]c3ncc(-c4ccc(Cl)cc4)cc23)c1F [vemurafenib]
Procedure, shortened: as §1

Measured: log2 fold change

ARHGAP39 isoform 2 (UniProt Q9C0H5)
inactive: [1] -0.165 | [2] -0.062 | [3] 0.037 | [4] -0.055 | volasertib 0 | sotrastaurin -0.078

API5 isoform 1 (UniProt Q9BZZ5)
inactive: ralimetinib -0.053 | [5] 0.038 | [6] -0.152 | [2] -0.055 | [7] -0.023 | [8] 0.07 | [9] -0.042 | [10] -0.116 | sotrastaurin 0.113

APOD (UniProt P05090)
inactive: [1] -0.09 | [11] -0.061 | [2] -0.025 | [3] -0.102 | [4] -0.215 | [12] -0.131 | volasertib -0.091 | [9] 0.279 | [10] -0.248 | saracatinib 0.072 | sotrastaurin -0.006

APOL1 isoform 2 (UniProt O14791)
inactive: [11] -0.08 | [12] 0.166 | [9] 0.465 | [10] -0.083 | saracatinib 0.231

AQP1 (UniProt P29972)
inactive: [9] -0.175 | [10] 0.128

ARF1 (UniProt P84077)
inactive: [1] -0.162 | ralimetinib 0.009 | [5] -0.072 | [13] -0.243 | [2] 0.091 | [7] -0.087 | [3] -0.456 | [4] 0.139 | volasertib -0.023 | [8] 0.017 | [9] 0.047 | [10] -0.225 | sotrastaurin 0.063

ARID4A (UniProt P29374)
inactive: ralimetinib 0.244 | [5] 0.087 | [13] 0.025 | [6] -0.056 | [11] 0.025 | [7] -0.089 | vemurafenib -0.077 | [8] -0.031 | [9] 0.06 | [10] 0 | saracatinib 0

ARHGAP15 (UniProt Q53QZ3)
inactive: [1] -0.1 | [2] -0.268 | [3] 0.038 | [4] -0.157 | [12] -0.32 | volasertib 0.243 | sotrastaurin -0.308

ARRDC1-AS1 (UniProt Q9H2J1)
inactive: [6] -0.286 | [9] 0.016 | [10] -0.024

ARHGEF16 (UniProt Q5VV41)
inactive: [13] 0.027 | [12] -0.016

APOC3 (UniProt P02656)
inactive: [11] -0.039 | [2] 0.185 | vemurafenib 0.22 | [12] 0.117 | saracatinib 0.18 | sotrastaurin -0.312

ARMC8 isoform 6 (UniProt Q8IUR7)
inactive: [1] -0.019 | [13] 0.015 | [3] -0.005 | [4] -0.022 | volasertib -0.047 | [9] 0.042 | [10] -0.038

ARMC10 isoform 2 (UniProt Q8N2F6)
inactive: ralimetinib -0.141 | [5] 0.033 | [11] -0.063 | [7] 0.003 | [12] 0.113 | [8] -0.126 | saracatinib 0.017

Quoted from the results shown (five entries):
ARHGAP15 (UniProt Q53QZ3)
inactive: [1] -0.1 | [2] -0.268 | [3] 0.038 | [4] -0.157 | [12] -0.32 | volasertib 0.243 | sotrastaurin -0.308

ARRDC1-AS1 (UniProt Q9H2J1)
inactive: [6] -0.286 | [9] 0.016 | [10] -0.024

ARHGEF16 (UniProt Q5VV41)
inactive: [13] 0.027 | [12] -0.016

APOC3 (UniProt P02656)
inactive: [11] -0.039 | [2] 0.185 | vemurafenib 0.22 | [12] 0.117 | saracatinib 0.18 | sotrastaurin -0.312

ARMC8 isoform 6 (UniProt Q8IUR7)
inactive: [1] -0.019 | [13] 0.015 | [3] -0.005 | [4] -0.022 | volasertib -0.047 | [9] 0.042 | [10] -0.038

Next entries follow:

ART3 (UniProt Q13508)
inactive: ralimetinib 0.19 | [5] -0.143 | [7] -0.383 | [8] 0.047

ARL6 isoform 2 (UniProt Q9H0F7)
inactive: [13] 0.072 | [2] -0.115 | sotrastaurin 0.026

ARRDC3 (UniProt Q96B67)
inactive: [13] -0.201

ARHGEF12 isoform 2 (UniProt Q9NZN5)
inactive: [2] -0.18 | [12] 0.03 | sotrastaurin -0.041

ARAP3 (UniProt Q8WWN8)
inactive: [13] -0.133 | [6] -0.003 | [11] 0.014 | [12] -0.281 | [9] 0.146 | [10] -0.038 | saracatinib 0.047

ARMC8 (UniProt C9JAA7)
inactive: [12] -0.002

APOBEC3B (UniProt Q9UH17)
inactive: ralimetinib 0.044 | [5] -0.021 | [13] 0.224 | [6] 0.112 | [11] -0.07 | [2] 0.162 | [7] -0.056 | vemurafenib -0.294 | [12] 0.026 | [8] -0.239 | [9] -0.46 | [10] -0.069 | saracatinib 0.055 | sotrastaurin -0.245

ARL6IP4 isoform 4 (UniProt Q66PJ3)
inactive: [1] -0.059 | [3] 0.071 | vemurafenib -0.037 | [4] -0.097 | volasertib -0.019 | [9] 0.056 | [10] -0.197

ARHGEF2 (UniProt V9GYF0)
inactive: [1] 0.02 | ralimetinib -0.041 | [5] -0.126 | [6] -0.055 | [11] -0.011 | [7] 0.008 | [3] -0.07 | vemurafenib -0.013 | [4] 0.05 | [12] 0.022 | volasertib -0.022 | [8] 0.11 | saracatinib -0.114

APBA3 (UniProt O96018)
inactive: [1] -0.203 | ralimetinib 0.027 | [5] -0.152 | [13] -0.063 | [2] -0.128 | [7] 0.112 | [3] 0.07 | vemurafenib 0.056 | [4] -0.038 | [12] -0.067 | volasertib -0.258 | [8] 0.016 | sotrastaurin -0.123
